Measured values published in the supplement of paper PMC10849652.
The list shows a part of the results.

Chains of the proteins cited; added tags and fusions are not shown. Lines headed by an entry give the natural chain unless they say otherwise; changes in a name come on top.
UniProt Q5SSJ5: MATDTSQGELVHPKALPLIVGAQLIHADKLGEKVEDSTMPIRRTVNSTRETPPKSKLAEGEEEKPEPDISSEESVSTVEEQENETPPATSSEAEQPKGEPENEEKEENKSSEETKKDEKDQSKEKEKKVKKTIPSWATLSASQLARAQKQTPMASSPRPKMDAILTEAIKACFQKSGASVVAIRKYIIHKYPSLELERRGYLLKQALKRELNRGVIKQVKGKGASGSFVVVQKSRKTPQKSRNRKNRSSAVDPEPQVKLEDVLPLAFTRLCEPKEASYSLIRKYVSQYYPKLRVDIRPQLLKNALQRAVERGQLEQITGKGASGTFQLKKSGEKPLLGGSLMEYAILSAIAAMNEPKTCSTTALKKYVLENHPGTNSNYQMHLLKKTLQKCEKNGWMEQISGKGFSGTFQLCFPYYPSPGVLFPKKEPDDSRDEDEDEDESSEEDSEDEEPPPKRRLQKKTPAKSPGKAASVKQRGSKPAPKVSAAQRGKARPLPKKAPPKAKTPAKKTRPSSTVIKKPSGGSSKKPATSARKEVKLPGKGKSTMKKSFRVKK
UniProt P51659: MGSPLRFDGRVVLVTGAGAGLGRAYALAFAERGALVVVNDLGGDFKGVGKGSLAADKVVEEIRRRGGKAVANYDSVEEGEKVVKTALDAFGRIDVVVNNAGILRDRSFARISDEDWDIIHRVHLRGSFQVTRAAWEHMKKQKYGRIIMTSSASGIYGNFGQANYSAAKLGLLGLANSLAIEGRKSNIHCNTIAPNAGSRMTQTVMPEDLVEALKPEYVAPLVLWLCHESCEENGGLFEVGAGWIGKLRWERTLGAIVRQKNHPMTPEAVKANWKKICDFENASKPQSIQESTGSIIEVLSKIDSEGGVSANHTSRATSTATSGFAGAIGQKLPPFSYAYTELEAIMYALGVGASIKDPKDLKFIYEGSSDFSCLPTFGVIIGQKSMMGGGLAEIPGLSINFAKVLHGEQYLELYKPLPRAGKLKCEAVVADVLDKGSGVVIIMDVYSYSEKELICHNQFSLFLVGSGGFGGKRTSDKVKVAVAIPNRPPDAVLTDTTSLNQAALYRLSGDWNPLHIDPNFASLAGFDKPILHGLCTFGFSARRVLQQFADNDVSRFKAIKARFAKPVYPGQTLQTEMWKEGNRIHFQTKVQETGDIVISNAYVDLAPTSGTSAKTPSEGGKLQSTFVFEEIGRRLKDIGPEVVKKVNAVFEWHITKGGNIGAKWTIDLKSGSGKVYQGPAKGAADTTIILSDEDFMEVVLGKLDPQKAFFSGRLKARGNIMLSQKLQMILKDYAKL
UniProt Q3SXM5: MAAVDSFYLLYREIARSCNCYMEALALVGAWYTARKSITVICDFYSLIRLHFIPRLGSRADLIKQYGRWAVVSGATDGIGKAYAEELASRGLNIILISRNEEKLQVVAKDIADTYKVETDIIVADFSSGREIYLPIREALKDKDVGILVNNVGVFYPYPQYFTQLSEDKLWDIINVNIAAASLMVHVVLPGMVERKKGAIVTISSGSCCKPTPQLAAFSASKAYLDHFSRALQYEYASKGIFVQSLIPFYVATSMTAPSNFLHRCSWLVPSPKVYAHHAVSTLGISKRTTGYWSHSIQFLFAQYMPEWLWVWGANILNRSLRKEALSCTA
UniProt P31942: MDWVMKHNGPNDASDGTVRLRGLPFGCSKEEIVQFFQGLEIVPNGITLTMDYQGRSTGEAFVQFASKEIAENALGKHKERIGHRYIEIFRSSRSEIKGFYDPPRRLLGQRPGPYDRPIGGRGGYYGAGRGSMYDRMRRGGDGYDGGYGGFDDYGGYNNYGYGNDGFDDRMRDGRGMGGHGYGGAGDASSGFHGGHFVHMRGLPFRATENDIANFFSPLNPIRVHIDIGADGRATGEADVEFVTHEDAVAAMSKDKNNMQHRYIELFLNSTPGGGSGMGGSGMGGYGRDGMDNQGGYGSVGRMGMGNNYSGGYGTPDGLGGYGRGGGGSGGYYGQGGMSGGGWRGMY
UniProt P54652, whole entry, looked up: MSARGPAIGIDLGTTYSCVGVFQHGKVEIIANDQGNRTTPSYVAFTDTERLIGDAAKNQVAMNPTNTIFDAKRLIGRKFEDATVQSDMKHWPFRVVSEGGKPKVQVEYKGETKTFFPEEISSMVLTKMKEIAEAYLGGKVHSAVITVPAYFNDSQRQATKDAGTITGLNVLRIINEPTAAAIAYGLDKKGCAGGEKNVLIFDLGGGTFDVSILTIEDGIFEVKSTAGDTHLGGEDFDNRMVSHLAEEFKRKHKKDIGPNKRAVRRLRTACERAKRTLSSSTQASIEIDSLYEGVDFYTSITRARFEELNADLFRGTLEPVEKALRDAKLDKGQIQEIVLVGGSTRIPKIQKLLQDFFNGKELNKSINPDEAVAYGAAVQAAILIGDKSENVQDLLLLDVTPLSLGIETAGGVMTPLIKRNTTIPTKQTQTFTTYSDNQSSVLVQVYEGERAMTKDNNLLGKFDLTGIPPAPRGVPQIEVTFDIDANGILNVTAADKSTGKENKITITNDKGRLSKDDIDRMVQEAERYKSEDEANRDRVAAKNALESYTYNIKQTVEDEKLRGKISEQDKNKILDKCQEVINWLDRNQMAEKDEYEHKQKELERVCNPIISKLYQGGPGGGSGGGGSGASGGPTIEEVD
UniProt Q86VS8: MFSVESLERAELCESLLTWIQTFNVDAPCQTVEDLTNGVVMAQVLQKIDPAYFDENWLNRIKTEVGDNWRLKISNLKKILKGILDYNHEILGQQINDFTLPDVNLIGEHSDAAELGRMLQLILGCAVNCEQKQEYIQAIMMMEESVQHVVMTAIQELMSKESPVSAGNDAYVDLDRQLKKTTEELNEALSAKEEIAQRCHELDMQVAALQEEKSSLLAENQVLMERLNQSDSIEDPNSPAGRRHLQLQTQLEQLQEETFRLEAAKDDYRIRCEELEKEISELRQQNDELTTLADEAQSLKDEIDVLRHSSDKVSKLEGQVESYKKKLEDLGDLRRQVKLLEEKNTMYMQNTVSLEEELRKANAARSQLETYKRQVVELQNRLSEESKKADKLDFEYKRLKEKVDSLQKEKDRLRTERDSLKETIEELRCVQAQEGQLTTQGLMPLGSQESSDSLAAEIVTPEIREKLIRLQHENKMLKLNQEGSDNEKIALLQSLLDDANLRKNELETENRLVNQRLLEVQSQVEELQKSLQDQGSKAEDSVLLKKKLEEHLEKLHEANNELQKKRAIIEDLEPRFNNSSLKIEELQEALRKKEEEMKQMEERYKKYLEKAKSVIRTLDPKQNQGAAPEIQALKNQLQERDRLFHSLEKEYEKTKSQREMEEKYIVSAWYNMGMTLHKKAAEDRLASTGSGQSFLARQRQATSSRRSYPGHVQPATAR
UniProt P08238, whole entry, looked up: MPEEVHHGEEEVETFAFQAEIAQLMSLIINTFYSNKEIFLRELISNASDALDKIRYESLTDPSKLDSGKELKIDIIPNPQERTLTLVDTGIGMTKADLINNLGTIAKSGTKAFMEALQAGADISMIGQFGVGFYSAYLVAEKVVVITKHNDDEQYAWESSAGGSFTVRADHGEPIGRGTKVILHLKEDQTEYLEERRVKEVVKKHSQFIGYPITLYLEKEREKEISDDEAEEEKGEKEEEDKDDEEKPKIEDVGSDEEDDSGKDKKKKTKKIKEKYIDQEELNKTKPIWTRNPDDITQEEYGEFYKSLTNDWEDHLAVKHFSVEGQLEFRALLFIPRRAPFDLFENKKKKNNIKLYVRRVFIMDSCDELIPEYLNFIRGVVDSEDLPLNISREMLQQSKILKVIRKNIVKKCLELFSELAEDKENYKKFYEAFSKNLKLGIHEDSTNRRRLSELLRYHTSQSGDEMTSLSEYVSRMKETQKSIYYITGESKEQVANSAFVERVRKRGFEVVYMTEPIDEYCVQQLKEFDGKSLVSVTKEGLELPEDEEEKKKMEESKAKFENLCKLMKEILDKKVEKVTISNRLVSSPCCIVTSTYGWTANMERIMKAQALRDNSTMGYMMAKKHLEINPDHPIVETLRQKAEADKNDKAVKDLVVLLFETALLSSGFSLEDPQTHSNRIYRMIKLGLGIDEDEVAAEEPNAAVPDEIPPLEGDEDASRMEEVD
UniProt P19367: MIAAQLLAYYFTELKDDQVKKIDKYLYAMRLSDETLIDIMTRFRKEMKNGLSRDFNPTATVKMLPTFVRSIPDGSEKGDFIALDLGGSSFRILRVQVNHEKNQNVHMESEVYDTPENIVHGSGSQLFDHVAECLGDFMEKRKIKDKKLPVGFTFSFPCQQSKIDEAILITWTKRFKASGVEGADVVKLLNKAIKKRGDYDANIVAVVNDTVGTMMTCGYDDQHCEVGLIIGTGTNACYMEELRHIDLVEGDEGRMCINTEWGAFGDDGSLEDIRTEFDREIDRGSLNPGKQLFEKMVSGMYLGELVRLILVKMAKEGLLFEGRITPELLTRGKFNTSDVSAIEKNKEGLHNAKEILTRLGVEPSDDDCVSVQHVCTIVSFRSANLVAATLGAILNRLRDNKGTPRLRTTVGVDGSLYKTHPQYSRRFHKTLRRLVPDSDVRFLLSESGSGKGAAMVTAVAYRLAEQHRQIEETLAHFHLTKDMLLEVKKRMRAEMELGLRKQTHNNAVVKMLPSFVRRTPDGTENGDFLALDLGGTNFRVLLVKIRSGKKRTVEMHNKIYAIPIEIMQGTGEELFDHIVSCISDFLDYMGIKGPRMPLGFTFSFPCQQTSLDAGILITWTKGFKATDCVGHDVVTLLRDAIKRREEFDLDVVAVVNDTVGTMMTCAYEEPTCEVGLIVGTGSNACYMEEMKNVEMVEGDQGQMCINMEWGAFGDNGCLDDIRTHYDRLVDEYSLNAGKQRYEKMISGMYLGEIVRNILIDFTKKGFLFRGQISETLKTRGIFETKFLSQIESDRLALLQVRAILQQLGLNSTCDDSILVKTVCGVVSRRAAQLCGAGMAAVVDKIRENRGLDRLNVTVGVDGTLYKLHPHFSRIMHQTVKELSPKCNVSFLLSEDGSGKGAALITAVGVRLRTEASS
UniProt Q14527: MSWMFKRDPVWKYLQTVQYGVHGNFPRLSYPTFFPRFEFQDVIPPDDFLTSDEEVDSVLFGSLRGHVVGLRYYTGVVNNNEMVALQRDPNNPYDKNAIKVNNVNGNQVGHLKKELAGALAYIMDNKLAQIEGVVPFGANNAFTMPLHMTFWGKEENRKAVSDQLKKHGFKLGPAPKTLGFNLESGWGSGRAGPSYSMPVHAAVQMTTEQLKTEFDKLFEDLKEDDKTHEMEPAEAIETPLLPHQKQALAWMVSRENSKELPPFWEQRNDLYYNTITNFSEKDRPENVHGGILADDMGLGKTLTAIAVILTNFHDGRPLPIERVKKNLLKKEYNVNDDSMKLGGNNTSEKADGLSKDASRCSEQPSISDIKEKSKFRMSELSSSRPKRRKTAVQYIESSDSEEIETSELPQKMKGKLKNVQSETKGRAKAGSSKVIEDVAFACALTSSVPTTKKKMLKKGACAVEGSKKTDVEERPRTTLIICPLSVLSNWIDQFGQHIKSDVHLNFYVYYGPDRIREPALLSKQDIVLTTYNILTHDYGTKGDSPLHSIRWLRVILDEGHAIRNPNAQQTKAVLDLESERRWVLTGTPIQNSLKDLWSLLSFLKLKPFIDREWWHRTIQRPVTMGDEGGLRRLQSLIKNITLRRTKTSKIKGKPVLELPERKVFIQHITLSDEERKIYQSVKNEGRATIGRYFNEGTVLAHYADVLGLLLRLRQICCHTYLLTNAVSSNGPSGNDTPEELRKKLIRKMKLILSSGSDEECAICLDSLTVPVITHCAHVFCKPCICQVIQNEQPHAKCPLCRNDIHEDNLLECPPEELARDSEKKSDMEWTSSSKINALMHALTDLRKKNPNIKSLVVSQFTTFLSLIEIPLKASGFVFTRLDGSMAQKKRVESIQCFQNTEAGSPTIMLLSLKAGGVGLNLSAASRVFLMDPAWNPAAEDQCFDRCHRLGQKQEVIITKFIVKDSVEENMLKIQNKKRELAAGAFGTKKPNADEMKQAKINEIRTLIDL
UniProt Q6DN03, whole entry, looked up: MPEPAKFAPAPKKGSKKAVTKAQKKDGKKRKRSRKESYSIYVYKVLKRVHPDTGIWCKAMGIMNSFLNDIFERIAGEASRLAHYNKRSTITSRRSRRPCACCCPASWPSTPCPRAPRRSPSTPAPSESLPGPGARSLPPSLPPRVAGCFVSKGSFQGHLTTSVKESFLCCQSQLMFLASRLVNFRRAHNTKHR
UniProt Q58FG1, whole entry, looked up: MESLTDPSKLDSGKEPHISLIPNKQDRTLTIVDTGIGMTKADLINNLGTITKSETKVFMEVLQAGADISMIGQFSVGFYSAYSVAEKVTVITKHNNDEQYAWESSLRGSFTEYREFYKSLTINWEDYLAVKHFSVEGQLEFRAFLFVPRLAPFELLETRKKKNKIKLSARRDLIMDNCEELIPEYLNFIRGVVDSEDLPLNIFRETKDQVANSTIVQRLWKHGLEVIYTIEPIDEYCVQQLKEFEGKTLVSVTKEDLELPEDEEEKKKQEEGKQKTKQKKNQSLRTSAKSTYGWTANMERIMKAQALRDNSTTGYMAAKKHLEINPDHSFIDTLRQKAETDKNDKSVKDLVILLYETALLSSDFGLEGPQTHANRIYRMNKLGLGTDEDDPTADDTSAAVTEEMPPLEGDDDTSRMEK

The targets below were run with CC1=C(SC2=C1C(=N[C@H](C3=NN=C(N32)C)CC(=O)N)C4=CC=C(C=C4)Cl)C (assay: log2 fold change, soluble protein after heating vs DMSO (PISA); higher = thermal stabilisation; K562 lysate, 10 uM; active = over 0.2 and 3.5 SD of the protein, either way, in both replicates (recomputed)).
Summary of the method: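 Pellets of K562 cells were dounce-homogenised in PBS pH 7.4 with 1 mM MgCl2, and the crude extract was held at 1 mg/mL protein for a 30 min treatment with 10 μM compound. Aliquots were heated for 3 min over 48°C-58°C and pooled before NP-40 was added to 0.5% at 4°C. The supernatant from 21,000xg for 90 min was quantified by TMTpro 16plex LC-MS/MS with channel sums equalised. Values are reported from duplicates as log-two fold change in thermal stability relative to solvent controls.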

Row | Target | log2 fold change
1 | HIC2 (UniProt Q96JB3) | inactive: 0.039
2 | HP1BP3 (UniProt Q5SSJ5) | inactive: -0.006
3 | HSD17B4 (UniProt P51659) | inactive: -0.002
4 | HS2ST1 (UniProt Q7LGA3) | inactive: -0.038
5 | HIBCH (UniProt Q6NVY1) | inactive: 0.005
6 | HSDL1 (UniProt Q3SXM5) | inactive: -0.017
7 | HEATR5B (UniProt Q9P2D3) | inactive: 0.042
8 | HIP1R (UniProt O75146) | inactive: 0.008
9 | HNRNPR isoform 2 (UniProt O43390) | inactive: 0.004
10 | HNRNPAB isoform 3 (UniProt Q99729) | inactive: 0.023
11 | HSP90AA1 isoform 2 (UniProt P07900) | inactive: 0.004
12 | HOMER1 (UniProt Q86YM7) | inactive: -0.026
13 | HNRNPH3 (UniProt P31942) | inactive: 0.023
14 | HSPA2 (UniProt P54652) | inactive: 0.081
15 | HOOK3 (UniProt Q86VS8) | inactive: -0.02
16 | HEXIM1 (UniProt O94992) | inactive: 0.001
17 | HSP90AB1 (UniProt P08238) | inactive: -0.013
18 | HNRNPC (UniProt P07910) | inactive: 0.062
19 | HK1 isoform 2 (UniProt P19367) | inactive: 0.017
20 | HLTF (UniProt Q14527) | inactive: -0.006
21 | HIST2H2BC (UniProt Q6DN03) | inactive: 0.065
22 | HSP90AA4P (UniProt Q58FG1) | inactive: 0.1

Part of the list above, field by field.
HIBCH (UniProt Q6NVY1)
  log2 fold change: inactive: 0.005
HSDL1 (UniProt Q3SXM5)
  log2 fold change: inactive: -0.017
